Experimental data taken from ChEMBL document CHEMBL4303122, “Identification of potential treatments for COVID-19 through artificial intelligence-enabled phenomic analysis of human cells infected with SARS-CoV-2” (2020).
Whole data set: some 1,600 compounds, median “Hit score” near 0.13, cut for the highest 2% near 0.46. The list shows a part of the results. *1 amine or outer side, *2 acyl side, *3 side chain or, on linkers, in order; H or OH if unused. Where a SMILES comes first, the peptide text is derived from it. Bridges are numbered along the chain shown (N, C = ends). [ ]: non-standard residue; d: D form. The star is where a group is joined. pTerphenylCO(4''-OnC5H11) = CCCCCOc1ccc(-c2ccc(-c3ccc(C(=O)*)cc3)cc2)cc1; Orn(4R-OH,5R-OH) = O=C([C@H](C[C@@H](O)[C@@H](O)N[*:3])N[*:1])[*:2]; hTyr(3S-OH,4S-OH) = N[C@H](C(=O)O)[C@H](O)[C@@H](O)c1ccc(O)cc1; Pro(3S-OH,4S-Me) = C[C@H]1CN[C@H](C(=O)O)[C@H]1O; Hyp = O=C(O)[C@@H]1C[C@@H](O)CN1

test system: SARS-CoV-2; assay: Antiviral activity against SARS-CoV-2 (USA-WA1/2020 strain) measured by imaging in HRCE cells at MOI 0.4 after 96 hrs (reported as hit score from 0-1 for on-disease vs off-disease activity: scores >0.6 considered hits); format: functional, Homo sapiens

| Structure (SMILES) | Hit score |
| --- | --- |
| Cc1oc(=O)oc1COC(=O)C1=C([C@H]2CCCO2)S[C@@H]2[C@@H]([C@@H](C)O)C(=O)N12 [FAROPENEM MEDOXOMIL] | 0.000691 |
| C=CC1=C(C(=O)O)N2C(=O)[C@@H](NC(=O)/C(=N\O)c3csc(N)n3)[C@H]2SC1 | 0.1164 |
| COc1ccccc1OCC(O)CN1CCN(CC(=O)Nc2c(C)cccc2C)CC1 (stereo unspecified) [RANOLAZINE] | 0.1142 |
| NC(=O)C(c1ccccc1)(c1ccccc1)[C@@H]1CCN(CCc2ccc3c(c2)CCO3)C1 [DARIFENACIN] | 0.15 |
| CCCNCC(O)COc1ccccc1C(=O)CCc1ccccc1 (stereo unspecified) [PROPAFENONE] | 0.2048 |
| CCCCCCOC(=O)CCC(=O)CN [HEXAMINOLEVULINATE] | 0.1128 |
| CO/N=C(\C(=O)N[C@@H]1C(=O)N2C(C(=O)OCOC(=O)C(C)(C)C)=C(C)CS[C@H]12)c1csc(N)n1 | 0.2495 |
| CC(=O)[C@H]1CC[C@H]2[C@@H]3CC[C@@H]4C[C@H](O)CC[C@]4(C)[C@H]3CC[C@]12C [ELTANOLONE] | 0.1546 |
| CCc1c(Cl)c(O)c(Cl)c(O)c1C(=O)O[C@H]1[C@H](O)[C@H](OC)[C@H](OC/C2=C\C=C\C[C@H](O)/C(C)=C/[C@H](CC)[C@@H](O[C@@H]3OC(C)(C)[C@@H](OC(=O)C(C)C)[C@H](O)[C@@H]3O)/C(C)=C/C(C)=C/C[C@@H]([C@@H](C)O)OC2=O)O[C@@H]1C [FIDAXOMICIN] | 0.1058 |
| OC[C@H]1O[C@@H](Oc2cc(O)cc(/C=C/c3ccc(O)cc3)c2)[C@H](O)[C@@H](O)[C@@H]1O [PICEID] | 0.1094 |
| CC(SC(=O)c1cccs1)C(=O)NCC(=O)O (stereo unspecified) [STEPRONIN] | 0.2404 |
| CCOC(=O)[C@H](CCc1ccccc1)N[C@H]1CS[C@H](c2cccs2)CN(CC(=O)O)C1=O [TEMOCAPRIL] | 0.08409 |
| C#C[C@]1(OC(C)=O)CC[C@H]2[C@@H]3CCC4=CC(=O)CC[C@@H]4[C@H]3CC[C@@]21C [NORETHINDRONE ACETATE] | 0.06494 |
| O=C1OCCN1/N=C/c1ccc([N+](=O)[O-])o1 [FURAZOLIDONE] | 0.1034 |
| NC(=O)c1ccc([N+](=O)[O-])cc1Cl [AKLOMIDE] | 0.1103 |
| C[n+]1ccc(C(=O)NCc2ccccc2)cc1.[I-] [ENISAMIUM IODIDE] | -0.002396 |
| c1ccc([C@H]2CN3CCSC3=N2)cc1 [LEVAMISOLE] | 0.1084 |
| C[C@@H]1C[C@H]2[C@@H]3C[C@H](F)C4=CC(=O)C=C[C@]4(C)[C@@]3(Cl)[C@@H](O)C[C@]2(C)[C@H]1C(=O)COC(=O)C(C)(C)C [CLOCORTOLONE PIVALATE] | 0.2781 |

| Structure (SMILES) | Hit score |
| --- | --- |
| CN1C[C@@H]2C[C@H]1CN2c1cc2c(cc1F)c(=O)c(C(=O)O)cn2C1CC1.CS(=O)(=O)O [DANOFLOXACIN MESYLATE] | 0.01486 |
| Cc1c(O)c(=O)ccn1C [DEFERIPRONE] | 0.04593 |
| O=[N+]([O-])c1cc([As](=O)(O)O)ccc1O [ROXARSONE] | 0.1196 |
| N#Cc1ccnc(N2C(=O)CC[C@H]2C(=O)N(c2cncc(F)c2)[C@H](C(=O)NC2CC(F)(F)C2)c2ccccc2Cl)c1 [IVOSIDENIB] | 0.2722 |
| CNC(=O)c1cnn(-c2nc(N)c3ncn([C@@H]4O[C@H](CO)[C@@H](O)[C@H]4O)c3n2)c1 [REGADENOSON ANHYDROUS] | 0.115 |
| Nc1ccc(S(=O)(=O)Nc2ccnn2-c2ccccc2)cc1 [SULFAPHENAZOLE] | 0.09169 |
| CCN(C)C(=O)Oc1cccc([C@H](C)N(C)C)c1 [RIVASTIGMINE] | 0.08962 |
| O=C(NCC(O)CO)c1c(I)c(C(=O)NCC(O)CO)c(I)c(N(CCO)C(=O)CO)c1I (stereo unspecified) [IOVERSOL] | 0.06195 |
| CCCCCC(=O)O[C@]1(C(C)=O)CC[C@H]2[C@@H]3CCC4=CC(=O)CC[C@]4(C)[C@H]3CC[C@@]21C [HYDROXYPROGESTERONE CAPROATE] | 0.1371 |
| COc1cc(C)c2c(Oc3cccc(C(F)(F)F)c3)c(OC)cc(NC(C)CCCN)c2n1.O=C(O)CCC(=O)O (stereo unspecified) [TAFENOQUINE SUCCINATE] | 0.101 |
| O=C1CC2(CCCC2)CC(=O)N1CCCCN1CCN(c2ncccn2)CC1 [BUSPIRONE] | 0.1391 |
| c1ccc(OCc2ccc(CCCN3CCOCC3)cc2)cc1 [FOMOCAINE] | 0.05308 |
| C[C@H](C(=O)O)c1ccc(-c2ccccc2)c(F)c1 [ESFLURBIPROFEN] | 0.1907 |
| N#Cc1cc(-c2n[nH]c(-c3ccncc3)n2)ccn1 [TOPIROXOSTAT] | -0.01483 |
| CCCCCOc1ccc(-c2ccc(-c3ccc(C(=O)N[C@H]4C[C@@H](O)[C@@H](O)NC(=O)[C@@H]5[C@@H](O)[C@@H](C)CN5C(=O)[C@H]([C@@H](C)O)NC(=O)[C@H]([C@H](O)[C@@H](O)c5ccc(O)cc5)NC(=O)[C@@H]5C[C@@H](O)CN5C(=O)[C@H]([C@@H](C)O)NC4=O)cc3)cc2)cc1 [ANIDULAFUNGIN] ({pTerphenylCO(4''-OnC5H11)}-[Orn(4R-OH,5R-OH)]T[Hyp][hTyr(3S-OH,4S-OH)]T[Pro(3S-OH,4S-Me)]; lactam 1-C) | 0.1907 |
| COC(=O)N(C)c1c(N)nc(-c2nn(Cc3ccccc3F)c3ncccc23)nc1N [RIOCIGUAT] | 0.2213 |
| C[C@H](CSC(=O)c1ccccc1)C(=O)N1C[C@@H](Sc2ccccc2)C[C@H]1C(=O)[O-].C[C@H](CSC(=O)c1ccccc1)C(=O)N1C[C@@H](Sc2ccccc2)C[C@H]1C(=O)[O-].[Ca+2] [ZOFENOPRIL CALCIUM] | 0.2305 |
| C/C=C/C[C@@H](C)[C@@H](O)[C@H]1C(=O)N[C@@H](CC)C(=O)N(C)CC(=O)N(C)[C@@H](CC(C)C)C(=O)N[C@@H](C(C)C)C(=O)N(C)[C@@H](CC(C)C)C(=O)N[C@@H](C)C(=O)N[C@H](C)C(=O)N(C)[C@@H](CC(C)C)C(=O)N(C)[C@@H](CC(C)C)C(=O)N(C)[C@@H](C(C)C)C(=O)N1C [CYCLOSPORINE] | 0.07198 |

Not a retest: an excerpt of the list.

| Structure (SMILES) | Hit score |
| --- | --- |
| COC(=O)N(C)c1c(N)nc(-c2nn(Cc3ccccc3F)c3ncccc23)nc1N [RIOCIGUAT] | 0.2213 |
| C[C@H](CSC(=O)c1ccccc1)C(=O)N1C[C@@H](Sc2ccccc2)C[C@H]1C(=O)[O-].C[C@H](CSC(=O)c1ccccc1)C(=O)N1C[C@@H](Sc2ccccc2)C[C@H]1C(=O)[O-].[Ca+2] [ZOFENOPRIL CALCIUM] | 0.2305 |
